This is an account of results in patent US11639325B2, “Compositions of polyhydroxylated benzophenones and methods of treatment of neurodegenerative disorders” (Massachusetts Institute of Technology, priority 2015, dated 2023).

In the data set the test system is 5XFAD mice. Put plainly: RNA-Seq of hippocampi of treated 5XFAD mice and gene enrichment analysis. The data set is classed as in vivo, mouse. Particulars: 50 mg/kg i.p. for 2 weeks.

Turning to `O=C(c1cc(O)c(O)c(O)c1)c1ccc(O)c(O)c1O` [exifone], the “enrichment of upregulated genes (ToppGene)” value was “enriched for those involved in cytokine responses”. Where the note is “p-value <0.05”, the differentially expressed genes is 1,383 genes, the downregulated genes was 599 genes and the upregulated genes is given as 784 genes.
